The list is a part of this screen's results and no random one: it is rich in T/C values a quarter to a half above the control, in often repeated tests (any T/C) and in doses without a T/C. Other doses and runs of a compound stand elsewhere. T/C is the treated group as % of the vehicle group. Some entries give survivors of the animals treated and no T/C: the source files T/C as zero there, which appears to mark a toxic dose or a test without result, not a measured value. Some survivor counts are full or nearly so, which does not show that the dose was tolerated: survival well below the control is almost never listed, so the zero probably covers shortened survival too. Survivors were counted at the toxicity check, usually on the fifth day, unless a day is given; later deaths do not show. Schedules are NCI's codes, read here as Q, the interval in days (D) or hours (H), X, the number of doses. Some entries hold several experiments; the values are given in rising order. Some structures stand for samples that the source files as different forms (salt, stereo form or complex); doses refer to the form tested. For survival time, this PubChem deposit counts one and a half times the control or more as active, and values a quarter to a half above the control carry no call in these data; other NCI protocols may use other cut-offs. Brackets with × give the number of equal values in this list.

For the assay, the system named is P388 leukemia ip, CD2F1 mice, survival T/C. In words: NCI In Vivo Anticancer Drug Screen. Data for tumor model P388 Leukemia (intraperitoneal) in CD2F1 (CDF1) mice. The settings on record: T/C endpoint: median survival time, higher T/C = longer survival.
Setting [1] is: dose: 200.0 mg/kg/injection, schedule: Q01DX009 (ip), vehicle: saline with Tween-80.
[2] abbreviates: dose: 12.5 mg/kg/injection, schedule: Q01DX009 (ip), vehicle: saline.
The mark [3] stands for this setting: dose: 25.0 mg/kg/injection, schedule: Q01DX009 (ip), vehicle: saline.
[4] abbreviates: dose: 240.0 mg/kg/injection, schedule: Q01DX005 (ip), vehicle: Klucel (hydroxypropylcellulose) (HPC).
The mark [5] stands for this setting: dose: 240.0 mg/kg/injection, schedule: Q01DX005 (ip), vehicle: saline.
Setting [6] is: dose: 50.0 mg/kg/injection, schedule: Q01DX009 (ip), vehicle: Klucel (hydroxypropylcellulose) (HPC).
Setting [7] is: dose: 100.0 mg/kg/injection, schedule: Q01DX009 (ip), vehicle: Klucel (hydroxypropylcellulose) (HPC).
The mark [8] stands for this setting: dose: 200.0 mg/kg/injection, schedule: Q01DX009 (ip), vehicle: Klucel (hydroxypropylcellulose) (HPC).

Regarding `c1cnc2n[se]nc2c1`, the survivor count is on record as 1 of 6 (dose: 25.0 mg/kg/injection, schedule: Q04DX002 (ip), vehicle: saline); 0 of 6 (dose: 100.0 mg/kg/injection, schedule: Q04DX002 (ip), vehicle: saline); 0 of 6 (dose: 200.0 mg/kg/injection, schedule: Q04DX002 (ip), vehicle: saline); 0 of 6 (dose: 400.0 mg/kg/injection, schedule: Q04DX002 (ip), vehicle: saline).
On to `CCc1nc(N)nc(N)c1-c1ccc([N+](C)(C)C)cc1`, for which the survivor count (dose: 50.0 mg/kg/injection, schedule: Q01DX005 (ip), vehicle: Klucel (hydroxypropylcellulose) (HPC)) is on record as 3 of 6; the survivor count (dose: 100.0 mg/kg/injection, schedule: Q01DX005 (ip), vehicle: Klucel (hydroxypropylcellulose) (HPC)) was 0 of 6; the survivor count (dose: 200.0 mg/kg/injection, schedule: Q01DX005 (ip), vehicle: Klucel (hydroxypropylcellulose) (HPC)) is listed as 0 of 6.
Turning to `N#Cc1ncc(-c2ccccc2)nc1Cl`, under setting [1], the survivor count is given as 3 of 6.
As for `O=[N+]([O-])c1ccc(/C=C/[n+]2ccc3ccccc3c2)o1`, the survivor count runs as follows: under setting [2], 3 of 6; under setting [3], 1 of 6; (dose: 50.0 mg/kg/injection, schedule: Q01DX009 (ip), vehicle: suspension in saline) 1 of 6; (dose: 100.0 mg/kg/injection, schedule: Q01DX009 (ip), vehicle: suspension in saline) 0 of 6; (dose: 200.0 mg/kg/injection, schedule: Q01DX009 (ip), vehicle: suspension in saline) 0 of 6.
As for `COc1cccc2c1C(=O)c1c(O)c3c(c(O)c1C2=O)C[C@@](O)(C(C)=O)C[C@@H]3OC1CC(NC=O)C(O)C(C)O1` (stereo partly specified), the T/C runs as follows: (dose: 6.25 mg/kg/injection, schedule: Q01DX009 (ip), vehicle: saline) 134 % of control; under setting [2], 135 % of control; under setting [3], 144 % of control.
In the case of `COc1cc(OC)cc(C2OC3=C(Nc4ccccc4N3)C2=O)c1` (stereo unspecified), under setting [4], the survivor count was 6 of 6.
For `COP(=O)(OC)C(O)C1CCCCC1` (stereo unspecified), the survivor count (dose: 100.0 mg/kg/injection, schedule: Q01DX009 (ip), vehicle: saline) is 5 of 6.
For `CCN(CC)CC1(C)NN=C2C(n3cccc3)=CC=CN21` (stereo unspecified), the survivor count under setting [5] is 3 of 6.
In the case of `COc1cccc2c1C(=O)c1c(O)c3c(c(O)c1C2=O)C[C@@](O)(/C(CO)=N/NC(=O)c1ccccc1)C[C@@H]3OC1CC(N)C(O)C(C)O1` (stereo partly specified), the T/C was 126 % of control (dose: 0.5 mg/kg/injection, schedule: Q01DX009 (ip), vehicle: water); 130 % of control (dose: 6.5 mg/kg/injection, schedule: Q01DX009 (ip), vehicle: saline); 133 % of control (dose: 12.0 mg/kg/injection, schedule: Q04DX003 (ip), vehicle: water); 128 % of control (dose: 16.0 mg/kg/injection, schedule: Q01DX009 (ip), vehicle: water); 133 % of control (dose: 24.0 mg/kg/injection, schedule: Q04DX003 (ip), vehicle: water); 146 % of control (dose: 48.0 mg/kg/injection, schedule: Q04DX003 (ip), vehicle: water). The survivor count (dose: 30.0 mg/kg/injection, schedule: Q01DX009 (ip), vehicle: saline) is reported as 4 of 6.
Turning to `CN1COc2c(n(C)c(=O)[nH]c2=O)C1`, the T/C (dose: 200.0 mg/kg/injection, schedule: Q01DX005 (ip), vehicle: saline) is 126 % of control (2×).
In the case of `[N-]=[N+]=CC(=O)C1(c2ccccc2)OC1c1ccc([N+](=O)[O-])cc1` (stereo unspecified), the survivor count reads like this: (dose: 100.0 mg/kg/injection, schedule: Q01DX001 (ip), vehicle: saline with Tween-80) 6 of 6; (dose: 200.0 mg/kg/injection, schedule: Q01DX001 (ip), vehicle: saline with Tween-80) 6 of 6; (dose: 400.0 mg/kg/injection, schedule: Q01DX001 (ip), vehicle: saline with Tween-80) 6 of 6.
Regarding `CN=NNc1ccc([N+](=O)[O-])cc1`, the survivor count reads like this: (dose: 12.5 mg/kg/injection, schedule: Q01DX009 (ip), vehicle: Klucel (hydroxypropylcellulose) (HPC)) 0 of 6; (dose: 25.0 mg/kg/injection, schedule: Q01DX009 (ip), vehicle: Klucel (hydroxypropylcellulose) (HPC)) 0 of 6; under setting [6], 0 of 6; under setting [7], 0 of 6; under setting [8], 0 of 6 and 3 of 6. Further, the T/C under setting [7] is 140 % of control.
Regarding `O=C1CSC(c2c(F)cccc2Cl)N1c1nncs1` (stereo unspecified), the T/C was 127 % of control (dose: 120.0 mg/kg/injection, schedule: Q01DX005 (ip), vehicle: Klucel (hydroxypropylcellulose) (HPC)) and 136 % of control under setting [4]. The survivor count under setting [4] was 4 of 6 and the survivor count (dose: 480.0 mg/kg/injection, schedule: Q01DX005 (ip), vehicle: Klucel (hydroxypropylcellulose) (HPC)) is 4 of 6.
For `CC12CCC3c4ccc(OP(=O)(N5CC5)N5CC5)cc4CCC3C1CCC2O` (stereo unspecified), the T/C (dose: 50.0 mg/kg/injection, schedule: Q01DX009 (ip), vehicle: saline with Tween-80) is 137 % of control. Also, under setting [1], the survivor count is 4 of 6.
For `CN(C)P1(N(C)C)=NP(N(C)C)(N(C)C)=NP(N(C)C)(N(C)C)=N1`, the survivor count by setting is: (dose: 100.0 mg/kg/injection, schedule: Q04DX003 (ip), vehicle: saline) 3 of 6; (dose: 200.0 mg/kg/injection, schedule: Q04DX003 (ip), vehicle: saline) 2 of 6; (dose: 400.0 mg/kg/injection, schedule: Q04DX003 (ip), vehicle: saline) 0 of 6.
Consider `CSC(=Nc1nc2ccc([N+](=O)[O-])cc2s1)SC`, for which the survivor count reads like this: under setting [6], 6 of 6; under setting [7], 2 of 6; under setting [8], 0 of 6.
Take `CNCCNc1ccc(C)c2sc3ccc(O)cc3c(=O)c12`: the survivor count is, setting by setting: under setting [6], 2 of 6; under setting [7], 5 of 6.
For the molecule `Cc1sc2ccc3ccccc3c2[n+]1C`, under “dose: 60.0 mg/kg/injection, schedule: Q01DX005 (ip), vehicle: saline”, the T/C was 104 (2×), 113, 123 % of control. The survivor count is 2 of 6 and 3 of 6 (dose: 120.0 mg/kg/injection, schedule: Q01DX005 (ip), vehicle: saline); 0 of 6 and 2 of 6 under setting [5].
Regarding `CCOc1cc2c(cc1Cc1ccc(OC)cc1OC)OCO2`, the T/C is, setting by setting: (dose: 120.0 mg/kg/injection, schedule: Q01DX005 (ip), vehicle: saline with Tween-80) 131 % of control; (dose: 240.0 mg/kg/injection, schedule: Q01DX005 (ip), vehicle: saline with Tween-80) 137 % of control; (dose: 480.0 mg/kg/injection, schedule: Q01DX005 (ip), vehicle: saline with Tween-80) 133 % of control.
